# Screening data, single-dose tests

Measurements from “University of Dundee, Small-Polar-MMV Screening Library” (2021), ChEMBL document CHEMBL3988442.

Mtb glucose medium: 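Growth of Mycobacterium tuberculosis over 3 days (7H9 medium with glucose and tyloxapol); the read-out is not stated. Compounds at 50 µM. The record gives no direction; compounds that gave an IC50 in retests scored well above the rest, so higher reads as more growth inhibition. Size under these conditions: about 69,000 compounds, about 760 of them at 50% or above in at least one test.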
Mtb cholesterol medium: 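Phenotypic screen: M. tuberculosis growth, cholesterol and DPPC medium, 4 days; the read-out is not stated. Compounds at 50 µM. Higher reads as more growth inhibition (inferred: compounds with an IC50 in retests scored well above the rest). About 69,000 compounds were tested under these conditions; 0.54% (about 370) showed 50% or more at least once.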

Results are given as percent effect.
The record does not define 0% and 100%; most values in the screen are far below 50% and negative numbers occur (in some assays of this library far below -100).
This is an unselected part of the compounds tested.
Two or more numbers in one place are separate tests of the same structure; such repeats can differ widely.

Compound	Mtb glucose medium	Mtb cholesterol medium
Cc1ccc2nccc(C(=O)N3CCOC(CCN(C)C)C3)c2c1 (centres undefined)	-3.3% & -32.72%	-14.52%
CC1(C)OC(=O)N(CCCC(=O)c2ccc(F)cc2)C1=O	23.88%	1.271%
CC(c1ccc(F)c(F)c1)N(C)CCS(=O)(=O)CCC(N)=O (centres undefined)	-35.99%	-10.46%
CN1CC(=O)c2sc(NCCc3ccccc3)nc2C1	-40.11%	-23.24%
Cc1cc(C(F)(F)F)c2c(C3CCCN(C(=O)C4CC4)C3)noc2n1 (centres undefined)	21.54%	-4.203%
CN1CCN(CC2CC2)C(=O)C12CCN(C(=O)c1ccnnc1)CC2.O=C(O)C(F)(F)F	-19.27% & -0.02142%	25.77%
[H][C@@]12CCN(S(=O)(=O)c3cc(C)cc(C)c3)C[C@]1(C(=O)NC)CCO2	-26.74%	-27.01% & -17.47%
Oc1ccc(N2CCN(Cc3ccc(F)cc3Br)CC2)cc1	-0.03609%	-3.969%
CCN(CC)CC[C@H]1CN(C(=O)CC(C)(C)C)CC[C@H]1CC(=O)O	6.962% & -24.5%	5.545%
CC(C)SCc1cccc(NC(=O)NC(C)c2nc[nH]n2)c1 (centres undefined)	-22% & 13.44%	1.377%
NC(=O)c1cnn2c1NCC(CNCC1(c3ccccc3)CCCC1)C2 (centres undefined)	28.4%	-6.247%
CC(=O)N1CCc2[nH]nc(C(=O)N3CC=CC3)c2C1	-4.407%	-22.61%
CCOC(C)c1nc(Cn2cccn2)cs1 (centres undefined)	3.251% & -47.53%	48.05%
COc1ccc(C(=O)N(C)Cc2nnc3ccccn23)cc1	-22.71%	-18.28%
Cc1n[nH]c(C)c1C1COCCN1C(=O)c1ccc(Cl)o1 (centres undefined)	-20.78%	-24.03%
CC(=O)c1cc(CC(=O)N2CCN(CCOc3ccccc3)CC2)cs1	11.85%	9.089%
COc1cccc(OC)c1C(=O)N1CCN(c2ccccc2F)CC1	-47.6%	-52.67%
COc1ccc(-n2nc(C(C)=O)c(C(C)=O)c2C)cc1Cl	3.583% & -11.32%	2.369%
Cc1ccccc1N1CCN(C(=O)c2cnc(N(C)C)nc2C)C(C)C1 (centres undefined)	1.378%	-32.66%
Cc1cscc1C(=O)N1CCCC1CC(=O)c1cnn(C)c1 (centres undefined)	8.148%	5.154%
[H][C@@]12CCN(C(=O)CC)C[C@]1([H])OCCN(Cc1ccc(OC)cc1)C2=O	-4.165%	-25.72%
CC(C)N1CCc2c(CNC(=O)c3nccn3C)cncc2C1.Cl.Cl.Cl	4.953%	-7.224%
CN(Cc1ccsc1)C(=O)Nc1ccc(S(C)(=O)=O)cc1	-24.16%	2.349%
CC(NC(=O)NCCCn1ccnc1)c1ccc2c(c1)OCCCO2 (centres undefined)	2.407%	2.65%
CS(=O)(=O)NC(=O)c1nnn(-c2ccccc2)c1C1CC1	-32.05%	-12.15%
COCCc1noc(CN2CCCC2c2c(C)nn(C)c2Cl)n1 (centres undefined)	-0.2372%	-1.168%
O=C(NC1CC1)C1CCN(Cn2nc(-c3ccccc3)oc2=O)CC1	-26.21% & 3.422%	-4.555%
CNS(=O)(=O)CC(=O)N(Cc1ccccc1)c1ccc(C)cc1	-24%	14.65%
Cc1ccc(CN2CCC3(CC2)COCCN3S(C)(=O)=O)o1.O=C(O)C(F)(F)F	13.83%	2.036%
c1ccc(CN2CCCC(c3nccnc3-n3ccnc3)C2)cc1 (centres undefined)	-3.367%	-14.4%
CC(C)CCNC(=O)C1CCN(c2ccc3nnc(C(C)C)n3n2)CC1	10.72%	-4.465%
COc1ccccc1S(=O)(=O)N1CCC2(CC1)OCCCC2O (centres undefined)	-7.175% & -2.939%	10.13%
O=C1CC2(CCCC2)CN1CCOc1ccc(F)cc1	27.62% & 36.32%	27.26%

Repeated from the top, 2 entries:

For Cc1ccc2nccc(C(=O)N3CCOC(CCN(C)C)C3)c2c1 (centres undefined) the result was Mtb glucose medium: -3.3% & -32.72%; Mtb cholesterol medium: -14.52%.
For CC1(C)OC(=O)N(CCCC(=O)c2ccc(F)cc2)C1=O the result was Mtb glucose medium: 23.88%; Mtb cholesterol medium: 1.271%.